Values of other authors, collected in US20110098255A1, “COMBINATION OF A PARP INHIBITOR AND AN AKT KINASE ACTIVATING COMPOUND” (priority 2008, published 2011).
For at least one compound, name, drawing or mass did not settle the structure.

The chains behind the UniProt entries cited, without tags or fusion partners.
UniProt P09874, whole entry: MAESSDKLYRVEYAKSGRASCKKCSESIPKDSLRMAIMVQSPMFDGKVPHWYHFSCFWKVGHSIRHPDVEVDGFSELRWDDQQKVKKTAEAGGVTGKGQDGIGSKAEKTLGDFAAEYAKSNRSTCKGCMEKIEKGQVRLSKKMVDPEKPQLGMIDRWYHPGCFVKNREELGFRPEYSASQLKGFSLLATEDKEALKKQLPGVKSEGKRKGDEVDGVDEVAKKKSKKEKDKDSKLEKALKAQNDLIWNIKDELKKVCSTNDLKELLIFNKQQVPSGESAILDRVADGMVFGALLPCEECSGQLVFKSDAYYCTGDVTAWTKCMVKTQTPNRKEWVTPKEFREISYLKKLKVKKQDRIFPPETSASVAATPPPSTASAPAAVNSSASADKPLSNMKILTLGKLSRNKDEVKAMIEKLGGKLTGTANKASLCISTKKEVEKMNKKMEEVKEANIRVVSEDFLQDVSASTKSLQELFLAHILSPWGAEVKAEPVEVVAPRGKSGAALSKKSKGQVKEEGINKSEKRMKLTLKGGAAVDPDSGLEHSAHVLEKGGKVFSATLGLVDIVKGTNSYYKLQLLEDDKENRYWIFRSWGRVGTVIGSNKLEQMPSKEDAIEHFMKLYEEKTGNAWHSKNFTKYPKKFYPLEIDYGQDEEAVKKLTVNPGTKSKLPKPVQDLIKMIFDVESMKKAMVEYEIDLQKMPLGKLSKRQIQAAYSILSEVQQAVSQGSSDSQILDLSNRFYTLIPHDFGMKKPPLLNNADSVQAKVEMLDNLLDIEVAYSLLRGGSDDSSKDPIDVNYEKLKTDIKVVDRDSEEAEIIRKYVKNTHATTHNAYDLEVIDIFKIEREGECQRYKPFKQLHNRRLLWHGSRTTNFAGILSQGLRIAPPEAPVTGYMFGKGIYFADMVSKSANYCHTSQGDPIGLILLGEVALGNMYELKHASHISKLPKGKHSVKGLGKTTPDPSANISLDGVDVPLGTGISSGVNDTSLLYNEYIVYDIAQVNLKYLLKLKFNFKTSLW

Biological target: PARP (Homo sapiens, UniProt P09874)
Settings: cited from earlier work

CN(C)c1ccc(O)c2c1C[C@H]1C[C@H]3[C@H](N(C)C)C(O)=C(C(N)=O)C(=O)[C@@]3(O)C(O)=C1C2=O [minocycline]
concentration at which PARP activity is inhibited: 1 nmol
